Consider five molecules from article PMC5302901.

Protein sequences, listed by entry. Tags and fused reporters are not part of them. Residues count along the entry.
UniProt P20273, residues 20-847: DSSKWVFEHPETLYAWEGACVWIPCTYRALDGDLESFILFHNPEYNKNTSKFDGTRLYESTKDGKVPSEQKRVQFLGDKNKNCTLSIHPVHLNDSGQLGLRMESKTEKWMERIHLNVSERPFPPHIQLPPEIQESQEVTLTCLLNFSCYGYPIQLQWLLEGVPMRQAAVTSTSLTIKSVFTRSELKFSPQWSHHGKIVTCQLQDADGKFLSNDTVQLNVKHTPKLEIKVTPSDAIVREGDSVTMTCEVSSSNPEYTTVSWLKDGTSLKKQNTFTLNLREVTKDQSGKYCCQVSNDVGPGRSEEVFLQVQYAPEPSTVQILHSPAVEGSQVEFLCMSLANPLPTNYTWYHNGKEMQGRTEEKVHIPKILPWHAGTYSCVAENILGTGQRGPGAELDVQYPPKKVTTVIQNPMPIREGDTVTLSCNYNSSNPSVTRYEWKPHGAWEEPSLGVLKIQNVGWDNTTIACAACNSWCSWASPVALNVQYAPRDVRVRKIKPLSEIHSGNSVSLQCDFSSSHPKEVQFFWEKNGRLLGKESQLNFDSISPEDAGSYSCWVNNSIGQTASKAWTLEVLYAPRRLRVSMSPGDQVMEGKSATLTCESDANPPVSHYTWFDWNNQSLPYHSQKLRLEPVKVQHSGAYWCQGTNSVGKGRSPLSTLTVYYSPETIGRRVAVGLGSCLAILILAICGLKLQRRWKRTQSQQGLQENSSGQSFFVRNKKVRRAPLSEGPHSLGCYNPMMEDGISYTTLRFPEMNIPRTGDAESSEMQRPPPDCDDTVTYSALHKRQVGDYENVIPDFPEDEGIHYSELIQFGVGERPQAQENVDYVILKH
UniProt P62993: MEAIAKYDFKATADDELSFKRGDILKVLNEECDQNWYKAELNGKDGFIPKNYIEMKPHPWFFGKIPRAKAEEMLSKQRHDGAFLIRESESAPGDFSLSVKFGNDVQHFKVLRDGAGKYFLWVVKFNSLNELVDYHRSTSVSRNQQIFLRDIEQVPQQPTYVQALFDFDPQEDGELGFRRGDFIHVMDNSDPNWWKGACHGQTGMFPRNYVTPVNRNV
UniProt Q07883: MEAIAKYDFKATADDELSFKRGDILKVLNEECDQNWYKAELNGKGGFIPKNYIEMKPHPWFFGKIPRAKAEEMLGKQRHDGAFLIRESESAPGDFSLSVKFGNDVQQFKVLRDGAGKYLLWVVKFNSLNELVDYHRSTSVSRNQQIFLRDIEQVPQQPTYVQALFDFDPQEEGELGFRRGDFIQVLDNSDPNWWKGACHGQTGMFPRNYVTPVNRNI

Test [1] deals with CD22 of normal human peripheral B cells (human (endogenous in peripheral B cells)) (UniProt P20273). The experiment in a line: co-IP; freshly isolated normal human B cells, with or without 5 ug/ml F(ab')2 anti-human IgM; 1% NP-40 lysate; IP of CD22, Grb2 or PMCA, blots of all three.
In test [2] the target is Grb2 of normal human peripheral B cells (human (endogenous in peripheral B cells)) (UniProt P62993). The description is as above.
Test [3] shares this target. The experiment in a line: condition: only without BCR activation (no anti-human IgM); co-IP; freshly isolated normal human B cells without BCR stimulation; IP of CD22, Grb2 or PMCA, blots of all three.
The target of test [4] is Grb2 of DT40 cells (chicken (endogenous in DT40)) (UniProt Q07883). The experiment in a line: co-IP; normal DT40 cells transfected with CD22-WT or mutants, stimulated with 5 ug/ml F(ab')2 IgM for 2.5 min; IP of Grb2, blots of CD22 and PMCA.

Numbering of substitutions follows the chain as printed. No constants are given. Whether binding was seen depends on the method and setting. In cells and extracts the contact can be indirect. Some results given as binding are weak or reduced against the parent protein; the word gives no strength.

For “Grb2 of normal human peripheral B cells (from UniProt P62993 1-217)”, in test [1], the binding result was “binds”. Consider “CD22 of normal human peripheral B cells (from UniProt P20273 20-847) (receptor)”, for which the binding result is “binds” in test [2] and “no binding” in test [3].

B1: mouse CD22-WT (receptor, UniProt P35329-1 22-868)
chain: SANDWTVDHPQTLFAWEGACIRIPCKYKTPLPKARLDNILLFQNYEFDKATKKFTGTVLYNATKTEKDPESELYLSKQGRVTFLGNRIDNCTLKIHPIRANDSGNLGLRMTAGTERWMEPIHLNVSEKPFQPYIQMPSEIRESQSVTLTCGLNFSCFGYDILLKWFLEDSEITSITSSVTSITSSVTSSIKNVYTESKLTFQPKWTDHGKSVKCQVQHSSKVLSERTVRLDVKYTPKLEIKVNPTEVEKNNSVTMTCRVNSSNPKLRTVAVSWFKDGRPLEDQELEQEQQMSKLILHSVTKDMRGKYRCQASNDIGPGESEEVELTVHYAPEPSRVHIYPSPAEEGQSVELICESLASPSATNYTWYHNRKPIPGDTQEKLRIPKVSPWHAGNYSCLAENRLGHGKIDQEAKLDVHYAPKAVTTVIQSFTPILEGDSVTLVCRYNSSNPDVTSYRWNPQGSGSVLKPGVLRIQKVTWDSMPVSCAACNHKCSWALPVILNVHYAPRDVKVLKVSPASEIRAGQRVLLQCDFAESNPAEVRFFWKKNGSLVQEGRYLSFGSVSPEDSGNYNCMVNNSIGETLSQAWNLQVLYAPRRLRVSISPGDHVMEGKKATLSCESDANPPISQYTWFDSSGQDLHSSGQKLRLEPLEVQHTGSYRCKGTNGIGTGESPPSTLTVYYSPETIGKRVALGLGFCLTICILAIWGMKIQKKWKQNRSQQGLQENSSGQSFFVRNKKARRTPLSEGPQSQGCYNPAMDDTVSYAILRFPESDTHNTGDAGTPATQAPPPNNSDSVTYSVIQKRPMGDYENVNPSCPEDESIHYSELVQFGAGKRPQAKEDVDYVTLKH
As for B1, the binding entry in test [4] is on record as “binds”.

B2: mouse CD22-F1/2/5/6 (receptor, UniProt P35329-1 22-868)
chain: B1 chain with Y752F, Y762F, Y822F, Y842F
Take B2: the binding result in test [4] is given as “binds”.

B3: mouse CD22-F5/6 (receptor, UniProt P35329-1 22-868)
chain: B1 chain with Y822F, Y842F
In the case of B3, the binding result in test [4] is listed as “binds”.
